The target of the experiment is T1, his-tagged human CDH6 extracellular region protein (hCDH6 ECD-his) (human) (UniProt P55285).
T1 sequence: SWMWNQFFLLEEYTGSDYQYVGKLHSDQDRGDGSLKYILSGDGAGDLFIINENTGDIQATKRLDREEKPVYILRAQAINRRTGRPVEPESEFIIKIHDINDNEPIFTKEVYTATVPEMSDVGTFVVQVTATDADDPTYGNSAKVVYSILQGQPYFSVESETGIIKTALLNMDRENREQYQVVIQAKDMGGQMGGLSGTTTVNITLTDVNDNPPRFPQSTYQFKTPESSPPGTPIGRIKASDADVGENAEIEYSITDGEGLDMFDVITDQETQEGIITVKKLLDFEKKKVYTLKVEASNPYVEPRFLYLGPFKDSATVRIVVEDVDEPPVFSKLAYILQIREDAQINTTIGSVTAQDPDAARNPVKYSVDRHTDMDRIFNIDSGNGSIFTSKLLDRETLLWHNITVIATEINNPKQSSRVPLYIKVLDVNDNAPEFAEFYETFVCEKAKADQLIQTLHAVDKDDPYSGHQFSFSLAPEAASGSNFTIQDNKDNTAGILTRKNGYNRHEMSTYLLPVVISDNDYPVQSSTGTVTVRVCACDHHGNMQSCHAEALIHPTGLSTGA
The experiment can be described thus: ELISA, antigen coated. (In general: An ELISA detects its analyte on a solid surface through an enzyme-linked reagent.)

This note sets out measurements from patent EP4663661A1 (Hainan Simcere Zaiming Pharmaceutical Co., Ltd., dated 2025).

These are yes or no findings as the source states them, for the method shown. Some entries that bind do so weakly or less than the wild type. Where a sequence is shown, tags or fusion partners need not be part of it.

B1: hCDH6-1-H2L1 (antibody, human IgG1, kappa, V domains shown)
VH: EVQLVQSGAEVKKPGSSVKVSCKASGYTFTNYWMHWVRQAPGQGLEWMGDIDPSHSETHYTQKFKDRVTITVDKSTSTAYMELSSLRSEDTAVYYCARGDLGRFDYWGQGTTVTVSS
VL: DIVMTQSPDSLAVSLGERATINCRASESVSIHGTHLMHWYQQKPGQPPKLLIYAASNLESGVPDRFSGSGSETDFTLTISSLQAEDVAVYYCQQSFEDPWTFGGGTKVEIKR
B1: the binding entry is “binds”.

B2: hCDH6-1-H4L1 (antibody, human IgG1, kappa, V domains shown)
VH: EVQLVQSGAEVKKPGSSVKVSCKASGYTFTNYWMHWVRQRPGQGLEWMGDIDPSHSETHYTQKFKDRVTITVDKSTSTAYMELSSLRSEDTAVYYCARGDLGRFDYWGQGTTVTVSS
VL: DIVMTQSPDSLAVSLGERATINCRASESVSIHGTHLMHWYQQKPGQPPKLLIYAASNLESGVPDRFSGSGSETDFTLTISSLQAEDVAVYYCQQSFEDPWTFGGGTKVEIKR
Take B2: the binding result was “binds”.

B3: hCDH6-1-H4L2 (antibody, human IgG1, kappa, V domains shown)
VH: EVQLVQSGAEVKKPGSSVKVSCKASGYTFTNYWMHWVRQRPGQGLEWMGDIDPSHSETHYTQKFKDRVTITVDKSTSTAYMELSSLRSEDTAVYYCARGDLGRFDYWGQGTTVTVSS
VL: DIVMTQSPDSLAVSLGERATINCRASESVSIHGTHLMHWYQQKSGQPPKLLIYAASNLESGVPDRFSGSGSETDFTLTISSLQAEDVAVYYCQQSFEDPWTFGGGTKVEIKR
Consider B3, for which the binding result is listed as “binds”.

B4: hCDH6-1-H2L2 (antibody, human IgG1, kappa, V domains shown)
VH: EVQLVQSGAEVKKPGSSVKVSCKASGYTFTNYWMHWVRQAPGQGLEWMGDIDPSHSETHYTQKFKDRVTITVDKSTSTAYMELSSLRSEDTAVYYCARGDLGRFDYWGQGTTVTVSS
VL: DIVMTQSPDSLAVSLGERATINCRASESVSIHGTHLMHWYQQKSGQPPKLLIYAASNLESGVPDRFSGSGSETDFTLTISSLQAEDVAVYYCQQSFEDPWTFGGGTKVEIKR
With B4, the binding entry is recorded as “binds”.

B5: hCDH6-1-H3L2 (antibody, human IgG1, kappa, V domains shown)
VH: EVQLVQSGAEVKKPGSSVKVSCKASGYTFTNYWMHWVRQAPGQGLEWMGDIDPSHSETHYTQKFKDRVTLTVDKSTSTAYMELSSLRSEDTAVYYCARGDLGRFDYWGQGTTVTVSS
VL: DIVMTQSPDSLAVSLGERATINCRASESVSIHGTHLMHWYQQKSGQPPKLLIYAASNLESGVPDRFSGSGSETDFTLTISSLQAEDVAVYYCQQSFEDPWTFGGGTKVEIKR
With B5, the binding result is “binds”.

B6: hCDH6-1-H3L1 (antibody, human IgG1, kappa, V domains shown)
VH: EVQLVQSGAEVKKPGSSVKVSCKASGYTFTNYWMHWVRQAPGQGLEWMGDIDPSHSETHYTQKFKDRVTLTVDKSTSTAYMELSSLRSEDTAVYYCARGDLGRFDYWGQGTTVTVSS
VL: DIVMTQSPDSLAVSLGERATINCRASESVSIHGTHLMHWYQQKPGQPPKLLIYAASNLESGVPDRFSGSGSETDFTLTISSLQAEDVAVYYCQQSFEDPWTFGGGTKVEIKR
In the case of B6, the binding entry was “binds”.

B7: hCDH6-1-H3L3 (antibody, human IgG1, kappa, V domains shown)
VH: EVQLVQSGAEVKKPGSSVKVSCKASGYTFTNYWMHWVRQAPGQGLEWMGDIDPSHSETHYTQKFKDRVTLTVDKSTSTAYMELSSLRSEDTAVYYCARGDLGRFDYWGQGTTVTVSS
VL: DIQMTQSPSSLSASVGDRVTITCRASESVSIHGTHLMHWYQQKPGKPPKLLIYAASNLESGVPSRFSGSGSETDFTFTISSLQPEDIATYYCQQSFEDPWTFGGGTKVEIKR
On to B7, for which the binding entry was “binds”.

B8: hCDH6-1-H4L3 (antibody, human IgG1, kappa, V domains shown)
VH: EVQLVQSGAEVKKPGSSVKVSCKASGYTFTNYWMHWVRQRPGQGLEWMGDIDPSHSETHYTQKFKDRVTITVDKSTSTAYMELSSLRSEDTAVYYCARGDLGRFDYWGQGTTVTVSS
VL: DIQMTQSPSSLSASVGDRVTITCRASESVSIHGTHLMHWYQQKPGKPPKLLIYAASNLESGVPSRFSGSGSETDFTFTISSLQPEDIATYYCQQSFEDPWTFGGGTKVEIKR
As for B8, the binding result is reported as “binds”.

B9: hCDH6-6-H1L3 (antibody, human IgG1, kappa, V domains shown)
VH: EVQLVQSGAEVKKPGASVKVSCKASGYTFTDYYMAWVRQAPGQGLEWMGYIFPNSGGTDYSQKFKGRVTMTVDKSTSTVYMELSSLRSEDTAVYYCARELGADYGDYYAMDHWGQGTTVTVSS
VL: DIQMTQSPSSLSASVGDRVTITCRASENIDSYLAWYQQKPGKSPQLLVYSATLLADGVPSRFSGSGSGTDYTLTISSLQPEDFATYYCQHYYRTPPTFGQGTKLEIKR
Consider B9, for which the binding result was “binds”.

B10: hCDH6-6-H2L3 (antibody, human IgG1, kappa, V domains shown)
VH: EVQLVQSGAEVKKPGASVKVSCKASGYTFTDYYMAWVRQAPGQGLEWMGYIFPNSGGTDYSQKFKGRVTLTVDKSTSTVYMELSSLRSEDTAVYYCARELGADYGDYYAMDHWGQGTTVTVSS
VL: DIQMTQSPSSLSASVGDRVTITCRASENIDSYLAWYQQKPGKSPQLLVYSATLLADGVPSRFSGSGSGTDYTLTISSLQPEDFATYYCQHYYRTPPTFGQGTKLEIKR
Consider B10, for which the binding entry was “binds”.

B11: hCDH6-6-H2L4 (antibody, human IgG1, kappa, V domains shown)
VH: EVQLVQSGAEVKKPGASVKVSCKASGYTFTDYYMAWVRQAPGQGLEWMGYIFPNSGGTDYSQKFKGRVTLTVDKSTSTVYMELSSLRSEDTAVYYCARELGADYGDYYAMDHWGQGTTVTVSS
VL: DIQMTQSPSSLSASVGDRVTITCRASENIDSYLAWYQQKPGKSPKLLVYSATLLADGVPSRFSGSGSGTDYTLTISSLQPEDFARYYCQHYYRTPPTFGQGTKLEIKR
On to B11, for which the binding entry was “binds”.

B12: hCDH6-6-H1L4 (antibody, human IgG1, kappa, V domains shown)
VH: EVQLVQSGAEVKKPGASVKVSCKASGYTFTDYYMAWVRQAPGQGLEWMGYIFPNSGGTDYSQKFKGRVTMTVDKSTSTVYMELSSLRSEDTAVYYCARELGADYGDYYAMDHWGQGTTVTVSS
VL: DIQMTQSPSSLSASVGDRVTITCRASENIDSYLAWYQQKPGKSPKLLVYSATLLADGVPSRFSGSGSGTDYTLTISSLQPEDFARYYCQHYYRTPPTFGQGTKLEIKR
As to B12, the binding entry is given as “binds”.

B13: hCDH6-6-H2L5 (antibody, human IgG1, kappa, V domains shown)
VH: EVQLVQSGAEVKKPGASVKVSCKASGYTFTDYYMAWVRQAPGQGLEWMGYIFPNSGGTDYSQKFKGRVTLTVDKSTSTVYMELSSLRSEDTAVYYCARELGADYGDYYAMDHWGQGTTVTVSS
VL: DIVMTQSPLSLPVTPGEPASISCRASENIDSYLAWYLQKPGKSPQLLVYSATLLADGVPDRFSGSGSGTDFTLKISRVEAEDVGVYYCQHYYRTPPTFGQGTKLEIKR
With B13, the binding result was “binds”.

B14: hCDH6-6-H1L5 (antibody, human IgG1, kappa, V domains shown)
VH: EVQLVQSGAEVKKPGASVKVSCKASGYTFTDYYMAWVRQAPGQGLEWMGYIFPNSGGTDYSQKFKGRVTMTVDKSTSTVYMELSSLRSEDTAVYYCARELGADYGDYYAMDHWGQGTTVTVSS
VL: DIVMTQSPLSLPVTPGEPASISCRASENIDSYLAWYLQKPGKSPQLLVYSATLLADGVPDRFSGSGSGTDFTLKISRVEAEDVGVYYCQHYYRTPPTFGQGTKLEIKR
Regarding B14, the binding entry is “binds”.

B15: hCDH6-6-H3L1 (antibody, human IgG1, kappa, V domains shown)
VH: EVQLVQSGAEVKKPGASVKVSCKASGYTFTDYYMAWVRQAPRQGLEWMGYIFPNSGGTDYSQKFKGRVTMTVDKSTSTVYMELSSLRSEDTAVYYCARELGADYGDYYAMDHWGQGTTVTVSS
VL: DIQMTQSPSSLSASVGDRVTITCRASENIDSYLAWYQQKPGKSPKLLLYSATLLADGVPSRFSGSGSGTDYTLTISSLQPEDFATYYCQHYYRTPPTFGQGTKLEIKR
As for B15, the binding result is on record as “binds”.
